From US20220096654A1, “PYRROLOBENZODIAZEPINE-ANTIBODY CONJUGATES AND USES THEREOF” (ADC THERAPEUTICS SA, priority 2020, published 2022)
These are yes or no findings as the source states them, for the method shown. Some entries that bind do so weakly or less than the wild type.

Protein sequences, listed by entry. Tags and fused reporters are not part of them. Lines headed by an entry give the natural chain unless they say otherwise; changes in a name come on top.
UniProt P08575: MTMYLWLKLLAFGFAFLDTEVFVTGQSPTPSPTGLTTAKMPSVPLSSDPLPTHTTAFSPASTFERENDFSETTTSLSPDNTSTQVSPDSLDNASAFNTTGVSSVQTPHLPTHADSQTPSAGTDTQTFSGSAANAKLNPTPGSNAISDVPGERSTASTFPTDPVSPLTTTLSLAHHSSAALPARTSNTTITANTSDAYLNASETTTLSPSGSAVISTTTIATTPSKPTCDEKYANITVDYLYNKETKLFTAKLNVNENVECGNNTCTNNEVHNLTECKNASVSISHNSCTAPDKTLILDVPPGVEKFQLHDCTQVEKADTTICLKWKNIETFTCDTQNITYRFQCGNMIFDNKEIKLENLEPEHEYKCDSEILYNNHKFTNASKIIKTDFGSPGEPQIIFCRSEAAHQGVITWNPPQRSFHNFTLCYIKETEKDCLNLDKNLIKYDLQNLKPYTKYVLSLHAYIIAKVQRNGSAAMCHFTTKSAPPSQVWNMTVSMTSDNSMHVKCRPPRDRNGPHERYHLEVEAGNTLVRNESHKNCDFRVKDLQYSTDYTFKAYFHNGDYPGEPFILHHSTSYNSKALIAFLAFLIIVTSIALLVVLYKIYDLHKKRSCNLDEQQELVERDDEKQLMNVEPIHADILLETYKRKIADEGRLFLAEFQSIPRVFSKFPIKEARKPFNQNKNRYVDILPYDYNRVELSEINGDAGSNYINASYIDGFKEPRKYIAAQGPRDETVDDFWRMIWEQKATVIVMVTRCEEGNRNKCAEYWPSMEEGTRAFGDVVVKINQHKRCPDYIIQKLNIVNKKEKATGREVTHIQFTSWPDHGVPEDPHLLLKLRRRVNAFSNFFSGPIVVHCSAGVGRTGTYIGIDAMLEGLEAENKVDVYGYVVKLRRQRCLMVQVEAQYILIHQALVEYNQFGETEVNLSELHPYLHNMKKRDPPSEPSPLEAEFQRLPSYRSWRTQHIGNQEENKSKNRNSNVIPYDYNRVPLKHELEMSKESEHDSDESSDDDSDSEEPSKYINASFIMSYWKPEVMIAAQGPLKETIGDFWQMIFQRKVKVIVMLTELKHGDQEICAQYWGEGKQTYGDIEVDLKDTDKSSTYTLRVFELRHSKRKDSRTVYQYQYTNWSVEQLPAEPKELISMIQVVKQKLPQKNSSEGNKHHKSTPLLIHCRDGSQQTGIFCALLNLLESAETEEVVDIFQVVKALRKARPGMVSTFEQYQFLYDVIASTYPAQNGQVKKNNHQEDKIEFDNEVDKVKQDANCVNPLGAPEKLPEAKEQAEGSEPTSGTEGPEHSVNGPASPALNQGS

B1: YTH24.5 rat IgG2b anti-human CD45 monoclonal antibody (antibody, V domains shown)
VH: QVNLLQSGAALVKPGASVKLSCKASSYTFTDYYIHWVKQSHGKTLEWIGYINPKSGFTNYNEKFRRKATLTVDKSTNTAYMDISRLTSEDSATYYCTRRTGVIPMDAWGQGASVTVSS
VL: DVVMTQTPVSLSVSLGGQVSISCRSSQSFVSSDGNTYLNWYLQKPGQSPQLLIYKVSNRLSGVPDRFSGSGSGTDFTLKISRVEHDDLGVYYCGQASKIPLTFGSGTKLEIKR
B2: YTH54.12 rat IgG2b anti-human CD45 monoclonal antibody (antibody, V domains shown)
VH: EVQLVESGGGLVQPGGSMKLSCAASGFTFSDYYMAWVRQAPKKGLEWVASMSFAGSSTYYGDSVKGRFTISRDNAKTTLYLQMNSLRSEDTATYYCARMYTTDYYLYWYFDFWGPGTMVTVSS
VL: DVQMTQSPSYLAASPGESVSISCKASKSISNYLAWYQQKPGEANKILIYSGSTLQSGTPSRFSGSGSGTDFSLTIRNLEPEDFAVYYCQQYDEKPLTFGSGTKLEIKR

Target: human CD45 (human) (UniProt P08575)
Assay: indirect: saporin-mediated killing of CD45+ Jurkat cells through anti-rat IgG-saporin

Binder | binding
B1 | binds
B2 | binds
